From patent publication US20220205997A1
No constants are given. Whether binding was seen depends on the method and setting. Some entries that bind do so weakly or less than the wild type.

By UniProt entry, the sequences of proteins in these tests, tags left out. Where a name states a change or a piece, a line headed by the entry shows the natural chain unless it says otherwise.
UniProt P02749: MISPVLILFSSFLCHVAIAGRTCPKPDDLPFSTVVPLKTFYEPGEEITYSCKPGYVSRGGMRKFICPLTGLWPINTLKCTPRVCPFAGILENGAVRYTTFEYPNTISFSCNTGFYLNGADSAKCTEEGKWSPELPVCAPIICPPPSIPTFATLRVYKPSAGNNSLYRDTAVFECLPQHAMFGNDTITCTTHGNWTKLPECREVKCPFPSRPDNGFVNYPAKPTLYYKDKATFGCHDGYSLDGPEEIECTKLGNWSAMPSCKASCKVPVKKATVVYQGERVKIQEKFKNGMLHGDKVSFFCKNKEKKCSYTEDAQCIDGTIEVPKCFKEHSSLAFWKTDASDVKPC
UniProt P04114: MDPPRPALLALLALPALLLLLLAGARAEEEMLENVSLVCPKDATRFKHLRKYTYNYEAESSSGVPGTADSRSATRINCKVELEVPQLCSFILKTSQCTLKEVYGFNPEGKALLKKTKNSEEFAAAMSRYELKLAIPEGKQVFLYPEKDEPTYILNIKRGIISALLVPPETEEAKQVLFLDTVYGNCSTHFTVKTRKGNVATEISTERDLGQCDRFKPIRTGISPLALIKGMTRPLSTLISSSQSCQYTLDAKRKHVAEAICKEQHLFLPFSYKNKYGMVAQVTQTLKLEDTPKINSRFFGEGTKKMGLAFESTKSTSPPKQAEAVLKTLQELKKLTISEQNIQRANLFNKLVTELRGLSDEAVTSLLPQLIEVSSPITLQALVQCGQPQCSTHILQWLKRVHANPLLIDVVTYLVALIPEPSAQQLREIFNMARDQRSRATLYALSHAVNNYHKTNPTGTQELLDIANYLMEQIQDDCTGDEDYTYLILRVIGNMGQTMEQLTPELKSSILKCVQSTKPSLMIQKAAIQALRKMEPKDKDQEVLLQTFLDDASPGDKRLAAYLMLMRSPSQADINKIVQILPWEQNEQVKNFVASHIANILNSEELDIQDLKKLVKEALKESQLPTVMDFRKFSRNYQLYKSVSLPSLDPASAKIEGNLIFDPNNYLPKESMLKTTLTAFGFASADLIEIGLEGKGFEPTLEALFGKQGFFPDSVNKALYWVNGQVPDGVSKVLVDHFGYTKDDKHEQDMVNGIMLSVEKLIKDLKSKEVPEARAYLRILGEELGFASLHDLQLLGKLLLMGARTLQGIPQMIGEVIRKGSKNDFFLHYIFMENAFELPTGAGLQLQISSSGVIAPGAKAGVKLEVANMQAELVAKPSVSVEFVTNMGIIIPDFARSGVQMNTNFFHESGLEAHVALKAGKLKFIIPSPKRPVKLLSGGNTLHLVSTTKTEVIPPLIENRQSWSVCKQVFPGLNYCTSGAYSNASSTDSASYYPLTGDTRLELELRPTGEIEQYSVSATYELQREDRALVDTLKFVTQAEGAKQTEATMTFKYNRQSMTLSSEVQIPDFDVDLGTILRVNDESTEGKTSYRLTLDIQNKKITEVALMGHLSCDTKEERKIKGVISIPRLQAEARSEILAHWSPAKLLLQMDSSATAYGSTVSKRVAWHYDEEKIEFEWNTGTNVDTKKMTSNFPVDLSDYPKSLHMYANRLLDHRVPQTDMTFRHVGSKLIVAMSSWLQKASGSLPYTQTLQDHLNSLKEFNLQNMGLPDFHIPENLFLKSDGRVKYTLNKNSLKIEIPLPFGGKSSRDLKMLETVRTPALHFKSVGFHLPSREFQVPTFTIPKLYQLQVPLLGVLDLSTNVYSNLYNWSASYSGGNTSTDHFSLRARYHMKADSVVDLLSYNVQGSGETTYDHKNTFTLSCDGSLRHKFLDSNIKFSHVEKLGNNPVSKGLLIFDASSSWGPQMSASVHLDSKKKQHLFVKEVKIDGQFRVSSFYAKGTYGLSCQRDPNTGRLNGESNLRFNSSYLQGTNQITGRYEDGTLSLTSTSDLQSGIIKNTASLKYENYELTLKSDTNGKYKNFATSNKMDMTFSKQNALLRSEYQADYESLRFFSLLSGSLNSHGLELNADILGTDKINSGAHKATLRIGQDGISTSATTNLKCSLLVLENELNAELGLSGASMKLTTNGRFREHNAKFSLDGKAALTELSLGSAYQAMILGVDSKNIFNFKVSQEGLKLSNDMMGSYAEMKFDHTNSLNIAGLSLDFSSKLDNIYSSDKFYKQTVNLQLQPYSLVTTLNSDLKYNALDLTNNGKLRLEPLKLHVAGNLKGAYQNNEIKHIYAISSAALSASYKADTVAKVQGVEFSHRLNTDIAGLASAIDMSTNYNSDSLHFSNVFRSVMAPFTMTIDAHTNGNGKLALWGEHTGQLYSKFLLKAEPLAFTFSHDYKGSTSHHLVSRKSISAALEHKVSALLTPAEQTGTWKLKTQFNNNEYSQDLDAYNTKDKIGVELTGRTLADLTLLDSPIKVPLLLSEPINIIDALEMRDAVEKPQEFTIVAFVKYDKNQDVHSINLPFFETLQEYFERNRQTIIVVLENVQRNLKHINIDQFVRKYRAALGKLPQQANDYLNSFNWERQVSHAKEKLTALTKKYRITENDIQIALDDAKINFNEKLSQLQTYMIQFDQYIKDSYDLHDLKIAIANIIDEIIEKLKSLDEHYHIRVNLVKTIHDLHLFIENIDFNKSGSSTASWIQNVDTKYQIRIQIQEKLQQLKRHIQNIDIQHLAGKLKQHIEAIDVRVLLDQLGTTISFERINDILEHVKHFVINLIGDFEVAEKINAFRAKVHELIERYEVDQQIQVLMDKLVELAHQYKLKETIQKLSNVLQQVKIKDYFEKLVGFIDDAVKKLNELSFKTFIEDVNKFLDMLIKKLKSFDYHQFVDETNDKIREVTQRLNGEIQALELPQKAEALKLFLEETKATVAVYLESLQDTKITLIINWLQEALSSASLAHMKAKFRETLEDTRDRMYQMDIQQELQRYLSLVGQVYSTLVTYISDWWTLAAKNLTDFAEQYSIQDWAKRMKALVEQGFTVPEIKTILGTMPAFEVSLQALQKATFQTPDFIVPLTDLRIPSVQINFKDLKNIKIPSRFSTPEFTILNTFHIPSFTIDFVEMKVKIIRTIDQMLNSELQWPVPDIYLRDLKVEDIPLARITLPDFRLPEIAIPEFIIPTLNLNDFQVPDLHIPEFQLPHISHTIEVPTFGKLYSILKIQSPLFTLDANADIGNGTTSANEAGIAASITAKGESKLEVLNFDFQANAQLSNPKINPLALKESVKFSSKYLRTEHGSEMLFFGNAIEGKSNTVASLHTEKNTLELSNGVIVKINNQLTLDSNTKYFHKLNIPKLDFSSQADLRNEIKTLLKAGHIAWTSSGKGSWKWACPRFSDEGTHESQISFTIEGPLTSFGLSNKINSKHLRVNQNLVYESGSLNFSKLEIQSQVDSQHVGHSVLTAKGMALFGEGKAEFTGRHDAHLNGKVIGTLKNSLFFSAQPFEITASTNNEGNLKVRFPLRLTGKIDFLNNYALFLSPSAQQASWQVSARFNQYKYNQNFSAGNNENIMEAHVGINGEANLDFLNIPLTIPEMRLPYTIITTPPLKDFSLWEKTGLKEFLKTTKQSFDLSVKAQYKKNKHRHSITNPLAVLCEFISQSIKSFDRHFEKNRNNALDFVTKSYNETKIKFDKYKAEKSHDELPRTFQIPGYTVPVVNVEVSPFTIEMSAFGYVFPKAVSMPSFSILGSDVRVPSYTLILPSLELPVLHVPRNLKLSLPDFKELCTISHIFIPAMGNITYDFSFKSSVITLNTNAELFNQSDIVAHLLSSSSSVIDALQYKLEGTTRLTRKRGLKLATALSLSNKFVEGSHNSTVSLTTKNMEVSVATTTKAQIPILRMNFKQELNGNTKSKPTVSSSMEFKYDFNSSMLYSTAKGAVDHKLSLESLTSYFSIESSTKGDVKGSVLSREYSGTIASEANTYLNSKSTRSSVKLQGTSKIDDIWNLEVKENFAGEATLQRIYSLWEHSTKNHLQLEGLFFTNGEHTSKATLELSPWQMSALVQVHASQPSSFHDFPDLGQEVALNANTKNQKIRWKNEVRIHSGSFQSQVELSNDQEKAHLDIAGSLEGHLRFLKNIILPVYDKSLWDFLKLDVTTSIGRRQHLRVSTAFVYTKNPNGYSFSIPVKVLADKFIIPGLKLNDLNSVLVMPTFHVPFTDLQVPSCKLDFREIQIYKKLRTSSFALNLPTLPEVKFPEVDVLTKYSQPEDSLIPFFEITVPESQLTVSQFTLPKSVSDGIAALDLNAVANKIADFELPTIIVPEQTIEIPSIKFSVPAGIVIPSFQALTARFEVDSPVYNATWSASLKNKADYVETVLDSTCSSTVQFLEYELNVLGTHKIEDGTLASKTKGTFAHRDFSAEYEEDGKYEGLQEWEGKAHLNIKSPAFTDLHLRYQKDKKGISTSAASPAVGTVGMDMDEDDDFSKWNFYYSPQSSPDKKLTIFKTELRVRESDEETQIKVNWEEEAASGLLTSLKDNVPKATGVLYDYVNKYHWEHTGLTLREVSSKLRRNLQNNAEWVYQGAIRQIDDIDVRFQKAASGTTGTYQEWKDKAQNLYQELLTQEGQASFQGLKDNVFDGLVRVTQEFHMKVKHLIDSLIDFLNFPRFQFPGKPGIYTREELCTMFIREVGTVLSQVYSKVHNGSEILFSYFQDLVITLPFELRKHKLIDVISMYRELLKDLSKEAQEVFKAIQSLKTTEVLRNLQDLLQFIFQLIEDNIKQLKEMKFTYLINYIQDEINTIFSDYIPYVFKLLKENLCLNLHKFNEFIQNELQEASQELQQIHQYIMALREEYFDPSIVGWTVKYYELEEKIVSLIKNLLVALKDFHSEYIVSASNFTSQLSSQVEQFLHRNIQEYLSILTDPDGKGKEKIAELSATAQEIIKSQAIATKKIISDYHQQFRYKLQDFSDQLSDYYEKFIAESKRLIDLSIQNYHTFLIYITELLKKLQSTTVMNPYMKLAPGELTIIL

What was measured:
[1] = molecular target: T1, Cu2+-oxLDL/β2GPI complex (complex of copper-oxidized LDL and β2-glycoprotein I) (human) (UniProt P02749+P04114); test: lateral flow assay, Experiment 8: biotin-2E10 as capture, gold-3H3 as label
[2] = molecular target: T1, Cu2+-oxLDL/β2GPI complex (complex of copper-oxidized LDL and β2-glycoprotein I) (human); test: lateral flow assay, Experiment 5: biotin-3H3 as capture, gold-2E10 as label; compared with Experiment 8

binding [1]: binds
binding [2]: binds
B1: 3H3 antibody (anti-β2GPI antibody produced by hybridoma clone 3H3) (antibody, V domains shown)
VH: EVQLVESGGGLVKPGGSLKLSCAASGFTFSSYAMSWARQTPEKRLEWVATISSGGSYTYYPDSVRGRFTISRDNAKNTLYLQMCSLRSEDTAMYYCARFDGYYAMDYWGQGTSVTVSS
VL: DIVMTQSHKFMSTSVGDRVSITCKASQDVGSAVAWYQQKPGQSPKLLIYWASTRHTGVPDRFTGSGSGTDFTLTISSLQSEDLADYFCQQYSSYPLTFGSGTKLEIK
